According to paper PMC12323271:
These are yes or no findings as the source states them, for the method shown. In cells and extracts the contact can be indirect. Some results given as binding are weak or reduced against the parent protein; the word gives no strength.

Chains of the proteins cited; added tags and fusions are not shown.
UniProt Q61221: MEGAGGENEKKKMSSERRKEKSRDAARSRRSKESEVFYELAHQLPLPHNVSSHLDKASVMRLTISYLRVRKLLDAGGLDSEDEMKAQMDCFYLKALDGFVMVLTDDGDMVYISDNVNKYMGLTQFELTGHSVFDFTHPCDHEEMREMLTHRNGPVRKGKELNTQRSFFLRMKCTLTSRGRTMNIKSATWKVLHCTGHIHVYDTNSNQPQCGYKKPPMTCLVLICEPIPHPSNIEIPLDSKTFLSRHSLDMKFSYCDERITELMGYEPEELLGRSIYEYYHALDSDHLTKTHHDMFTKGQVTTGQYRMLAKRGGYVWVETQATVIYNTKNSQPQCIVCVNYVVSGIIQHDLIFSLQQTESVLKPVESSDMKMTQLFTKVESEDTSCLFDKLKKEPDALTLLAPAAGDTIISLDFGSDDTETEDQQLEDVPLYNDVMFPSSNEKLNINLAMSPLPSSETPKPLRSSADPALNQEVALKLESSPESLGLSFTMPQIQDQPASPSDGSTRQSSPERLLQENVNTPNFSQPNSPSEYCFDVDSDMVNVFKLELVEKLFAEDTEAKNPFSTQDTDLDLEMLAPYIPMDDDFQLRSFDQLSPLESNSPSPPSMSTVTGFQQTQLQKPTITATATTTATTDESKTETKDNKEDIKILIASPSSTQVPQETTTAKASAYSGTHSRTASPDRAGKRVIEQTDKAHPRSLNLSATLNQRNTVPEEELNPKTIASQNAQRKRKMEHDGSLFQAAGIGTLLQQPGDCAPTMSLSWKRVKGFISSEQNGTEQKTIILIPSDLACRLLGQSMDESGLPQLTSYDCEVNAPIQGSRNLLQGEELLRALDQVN
UniProt P53762: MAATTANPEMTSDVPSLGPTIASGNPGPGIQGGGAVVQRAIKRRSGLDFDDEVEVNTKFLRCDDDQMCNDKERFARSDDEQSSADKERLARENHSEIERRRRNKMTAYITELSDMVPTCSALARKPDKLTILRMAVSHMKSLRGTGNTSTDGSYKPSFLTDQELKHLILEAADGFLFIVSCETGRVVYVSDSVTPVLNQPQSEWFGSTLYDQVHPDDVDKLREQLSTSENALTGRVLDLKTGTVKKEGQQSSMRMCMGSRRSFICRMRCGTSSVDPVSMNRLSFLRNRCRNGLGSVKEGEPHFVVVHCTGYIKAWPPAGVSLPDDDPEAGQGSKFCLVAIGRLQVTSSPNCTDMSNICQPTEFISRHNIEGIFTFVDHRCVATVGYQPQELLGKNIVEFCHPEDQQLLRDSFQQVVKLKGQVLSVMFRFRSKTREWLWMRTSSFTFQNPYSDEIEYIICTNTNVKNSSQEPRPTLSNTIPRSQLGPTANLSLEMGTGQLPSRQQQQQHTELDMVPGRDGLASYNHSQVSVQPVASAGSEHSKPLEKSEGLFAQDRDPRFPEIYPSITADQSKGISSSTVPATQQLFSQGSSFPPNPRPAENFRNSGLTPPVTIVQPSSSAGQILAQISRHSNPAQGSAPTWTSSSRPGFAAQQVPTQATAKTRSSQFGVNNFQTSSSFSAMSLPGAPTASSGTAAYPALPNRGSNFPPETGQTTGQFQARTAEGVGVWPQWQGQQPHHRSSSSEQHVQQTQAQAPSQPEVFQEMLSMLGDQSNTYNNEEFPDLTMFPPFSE

Target: MYC-tagged HIF-1α wild type (HIF-1α-WT-MYC) (mouse) (UniProt Q61221)
Assay: co-IP; IP with the anti-MYC antibody from whole-cell lysates of NIH/3T3 cells transfected with MYC-tagged HIF-1α vectors; 10 µM MG132; basal, 1 mM sodium lactate or hypoxia; blots for VHL or HIF-β

binding: binds
Substance: HIF-1β (ARNT), endogenous in NIH/3T3 cells (from UniProt P53762 1-791)
